We go through three compounds from US4909940A, “Extraction of process chemicals from labile biological mixtures with organic alcohols or with halogenated hydrocarbons” (priority 1987, dated 1990).

Data set [1] in a line: Plasma filterability after extraction. The following applies: 10% extractant; for Minimum Porosity of Filter which Provides a Flow Rate of 12 mL/minute: 30 minutes, ambient, untreated 3 micron.
The nature of data set [2]: Extraction of process chemicals from saline: TRITON X100. The following applies: TRITON X45, X114, X100.

The structures appear in SMILES notation.

On to `FC(F)OC(Cl)C(F)(F)F` (stereo not drawn) [FORANE, 1-chloro-2,2,2-trifluoroethyl difluoromethyl ether], for which, in data set [1], the “plasma filterability (in words)” value is reported as “improves the filterability of plasma” and the “Minimum Porosity of Filter which Provides a Flow Rate of 12 mL/minute” value is less than 0.45 micron.

In the case of `CCCCCO` [1-pentanol], in data set [2], the “extraction efficiency as hydrophilicity of the TRITON increases (in words)” value was “declined”.

Turning to `CCCCCCC(C)O` (stereo not drawn) [2-octanol], the “extraction efficiency as hydrophilicity of the TRITON increases (in words)” value in data set [2] was “declined”. Besides, in data set [1], the “plasma filterability (in words)” value is on record as “improves the filterability of plasma” and the “Minimum Porosity of Filter which Provides a Flow Rate of 12 mL/minute” value is listed as less than 1.2 micron.
